Data: PMC8546558

Tests used:
[1] = target: T1, NisTHis (NisT C-terminally labeled by a 6×His tag) (Lactococcus lactis) (UniProt Q03203); assay: pull-down; NisTHis held on Ni-NTA agarose from DDM-solubilised membrane; expression combinations: NisB_(flag) and NisC without NisA, NisB_(flag) alone, NisC alone; SDS-PAGE and Western blotting
T1 sequence: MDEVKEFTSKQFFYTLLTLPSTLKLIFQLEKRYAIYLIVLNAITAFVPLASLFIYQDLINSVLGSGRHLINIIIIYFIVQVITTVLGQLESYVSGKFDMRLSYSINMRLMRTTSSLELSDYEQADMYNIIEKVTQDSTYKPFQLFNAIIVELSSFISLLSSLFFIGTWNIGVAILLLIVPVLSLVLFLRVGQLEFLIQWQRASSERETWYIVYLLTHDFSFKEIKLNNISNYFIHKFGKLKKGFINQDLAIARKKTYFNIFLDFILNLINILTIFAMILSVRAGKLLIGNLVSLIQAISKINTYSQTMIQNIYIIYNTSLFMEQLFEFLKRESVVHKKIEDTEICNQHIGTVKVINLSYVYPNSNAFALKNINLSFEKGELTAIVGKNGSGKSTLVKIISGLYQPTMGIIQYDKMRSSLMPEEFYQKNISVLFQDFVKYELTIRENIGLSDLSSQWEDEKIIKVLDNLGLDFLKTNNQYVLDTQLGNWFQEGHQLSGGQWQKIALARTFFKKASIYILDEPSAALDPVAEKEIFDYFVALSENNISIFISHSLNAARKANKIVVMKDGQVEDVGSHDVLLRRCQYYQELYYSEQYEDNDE

[2] = target: T2, NisCHis (6×His-tagged NisC) (Lactococcus lactis) (UniProt Q03202); assay: pull-down; NisCHis held on Ni-NTA agarose from the cell lysate of L. lactis NZ9000 coexpressing NisB_(flag), NisB^G_(flag) or NisB^E_(flag), without NisA; SDS-PAGE and Western blotting with anti-Flag
T2 sequence: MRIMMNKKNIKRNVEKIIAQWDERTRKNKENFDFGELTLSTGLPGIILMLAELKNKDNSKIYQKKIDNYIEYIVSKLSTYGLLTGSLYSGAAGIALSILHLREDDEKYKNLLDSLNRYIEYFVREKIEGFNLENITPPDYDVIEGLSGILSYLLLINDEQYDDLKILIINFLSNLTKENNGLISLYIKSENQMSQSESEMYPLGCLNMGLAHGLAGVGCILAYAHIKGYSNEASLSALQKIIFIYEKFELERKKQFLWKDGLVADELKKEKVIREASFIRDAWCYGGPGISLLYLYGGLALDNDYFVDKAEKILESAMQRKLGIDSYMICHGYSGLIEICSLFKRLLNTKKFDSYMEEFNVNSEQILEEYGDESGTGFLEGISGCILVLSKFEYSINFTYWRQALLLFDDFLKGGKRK

[3] = target: T1, NisTHis (NisT C-terminally labeled by a 6×His tag) (Lactococcus lactis); assay: pull-down; NisTHis or NisT^H551AHis held on Ni-NTA agarose from DDM-solubilised cytoplasmic membrane of L. lactis NZ9000 coexpressing NisA, NisB_(flag) and NisC; 50 mM Tris-HCl, 300 mM NaCl, 0.1% DDM, pH 7.4, 4°C; elutions blotted with anti-Flag and anti-NisC
[4] = target: T1, NisTHis (NisT C-terminally labeled by a 6×His tag) (Lactococcus lactis); assay: pull-down; NisTHis held on Ni-NTA agarose, coexpressed with NisB^G_(flag) or NisB^E_(flag) in L. lactis NZ9000; the legend says purified from the cell lysate; Western blotting with anti-His and anti-Flag

Substance | binding [1] | binding [2] | binding [3] | binding [4]
NisB^C, the C-terminal product of degraded NisB (Lactococcus lactis) (domain or fragment) | binds | binds | binds | –
NisB^E_(flag), the elimination domain of NisB (Lactococcus lactis) (domain or fragment) | – | binds | – | binds
NisB^G_(flag), the glutamylation domain of NisB (Lactococcus lactis) (domain or fragment) | – | binds | – | binds

These are yes or no findings as the source states them, for the method shown. Binding seen in cells or lysates may run through a third protein. A result given as binding can be weak or reduced; the word gives no strength. Sequences can lack the tags named with a protein.
